Data as given in PubChem BioAssay AID504764 (Drosophila RNAi Screening Center, 2011).

Purpose: 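Knock-downs that raise or lower a Notch target reporter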 (primary screen)
Cells: Drosophila Kc167 cells
Knock-down reagent: long dsRNA against Drosophila genes
Timing: about 5 days (4 days dsRNA, then 24 h after transfection)
Conditions: transfection of constitutively active membrane-tethered Notch lacking the extracellular domain, read 24 h later
Measured: 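Firefly luciferase from an E(spl)m3 reporter with active Notch, plus control-promoter and uninduced reporter wells for normalisation; unnormalised counts, duplicate wells a and b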
Reading the numbers: induced reporter light, run 1, well a and induced reporter light, run 1, well b: higher = more light from the Notch target reporter with active Notch; control promoter light, run 1, well a and control promoter light, run 1, well b: higher = more light from the viral control promoter (cell number, transfection, viability); uninduced reporter light, run 1, well a: higher = more light from the Notch target reporter without active Notch
Active means: 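Wells with low control signal or poorly matching duplicates excluded; duplicates averaged; per source plate, z beyond ±2 for induced/control log2 ratio or beyond ±1.8 for induced/uninduced marks a hit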
Meaning of the calls: active = modifier hit (raised or lowered Notch signal); inactive = not a hit
The screen tested about 22,000 reagents; shown is an unselected part of those that have a named target and a result. In the full data, 403 (1.9%) are marked active. 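Unnormalised raw counts per well; ratio z-scores behind the hit calls and whether each hit raises or lowers signal are not deposited.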 Not stated in the record: the amount of reagent.

| target gene | DRSC id | induced reporter light, run 1, well a | induced reporter light, run 1, well b | control promoter light, run 1, well a | control promoter light, run 1, well b | uninduced reporter light, run 1, well a | activity call |
| --- | --- | --- | --- | --- | --- | --- | --- |
| CG18128 | DRSC04304 | 2.21e5 | 1.87e5 | 1.88e5 | 1.82e5 | 14100 | inactive |
| CG18754 | DRSC15387 | 1.84e5 | 1.94e5 | 2.06e5 | 2.08e5 | 15585 | inactive |
| lush | DRSC11364 | 1.77e5 | 1.30e5 | 1.11e5 | 1.16e5 | 13520 | inactive |
| CG11980 | DRSC14456 | 47915 | 72345 | 46875 | 46205 | 5532 | inactive |
| CG18809 | DRSC19818 | 1.14e5 | 1.26e5 | 1.48e5 | 1.81e5 | 15070 | inactive |
| CG8008 | DRSC07053 | 1.62e5 | 1.48e5 | 1.80e5 | 2.38e5 | 14900 | active |
| CG3511 | DRSC04382 | 2.04e5 | 1.39e5 | 1.14e5 | 1.21e5 | 13388 | inactive |
| CG6974 | DRSC16160 | 2.40e5 | 2.62e5 | 2.29e5 | 2.27e5 | 18640 | inactive |
| CG32147 | DRSC09346 | 1.55e5 | 1.66e5 | 1.54e5 | 1.90e5 | 13205 | inactive |
| GV1 | DRSC08228 | 1.24e5 | 94730 | 1.82e5 | 1.58e5 | 5620 | inactive |
| Bug22 | DRSC02842 | 98420 | 1.30e5 | 54055 | 72635 | 17345 | inactive |
| ncd | DRSC17012 | 1.11e5 | 1.11e5 | 1.38e5 | 1.35e5 | 10900 | active |
| Pex19 | DRSC02839 | 2.07e5 | 1.99e5 | 1.55e5 | 1.69e5 | 18095 | inactive |
| CAH3 | DRSC17776 | 1.12e5 | 1.04e5 | 2.14e5 | 2.20e5 | 9265 | inactive |
| Ir48c | DRSC06154 | 1.02e5 | 96190 | 1.48e5 | 1.25e5 | 9092 | inactive |
| Osi6 | DRSC12128 | 38565 | 43080 | 43280 | 29540 | 2615 | inactive |
| Cyp4e2 | DRSC07371 | 1.60e5 | 1.54e5 | 1.71e5 | 1.83e5 | 13420 | inactive |
| Gpxl | DRSC06538 | 1.06e5 | 1.03e5 | 1.36e5 | 1.45e5 | 6875 | inactive |
| SA1 | DRSC03424 | 78525 | 63620 | 70715 | 77610 | 8915 | inactive |
| CenG1A | DRSC02538 | 87690 | 1.01e5 | 1.21e5 | 1.43e5 | 8425 | inactive |
| CenG1A | DRSC03505 | 1.52e5 | 1.35e5 | 1.82e5 | 1.46e5 | 11675 | inactive |
| CenG1A | DRSC03506 | 1.20e5 | 1.34e5 | 1.65e5 | 1.63e5 | 12750 | inactive |
| siz | DRSC11622 | 51560 | 38215 | 34695 | 33780 | 3735 | inactive |
| siz | DRSC11689 | 90600 | 98810 | 1.74e5 | 1.41e5 | 8410 | inactive |
| siz | DRSC11690 | 1.19e5 | 1.12e5 | 1.36e5 | 1.20e5 | 11045 | inactive |
| bnk | DRSC16912 | 92045 | 90325 | 1.45e5 | 1.38e5 | 9270 | inactive |
| CG15399 | DRSC00413 | 1.35e5 | 1.15e5 | 1.22e5 | 1.27e5 | 10080 | inactive |
| Tollo | DRSC11305 | 1.88e5 | 2.52e5 | 2.63e5 | 2.35e5 | 9590 | inactive |
| Spf45 | DRSC03826 | 36375 | 32375 | 40065 | 38005 | 2825 | inactive |
| nrv3 | DRSC03097 | 1.94e5 | 1.80e5 | 2.62e5 | 2.32e5 | 12065 | inactive |
| RhoGAP1A | DRSC20649 | 83840 | 98180 | 1.03e5 | 1.19e5 | 12030 | inactive |
| RhoGAP1A | DRSC20651 | 97585 | 93885 | 1.12e5 | 1.18e5 | 12000 | inactive |
| sesB | DRSC20371 | 68645 | 51915 | 1.73e5 | 1.24e5 | 4965 | inactive |
| Jon44E | DRSC07216 | 1.24e5 | 1.02e5 | 1.71e5 | 1.68e5 | 12900 | inactive |

Already shown: an excerpt of the list.
| target gene | DRSC id | induced reporter light, run 1, well a | induced reporter light, run 1, well b | control promoter light, run 1, well a | control promoter light, run 1, well b | uninduced reporter light, run 1, well a | activity call |
| --- | --- | --- | --- | --- | --- | --- | --- |
| Gpxl | DRSC06538 | 1.06e5 | 1.03e5 | 1.36e5 | 1.45e5 | 6875 | inactive |
| SA1 | DRSC03424 | 78525 | 63620 | 70715 | 77610 | 8915 | inactive |
| CenG1A | DRSC02538 | 87690 | 1.01e5 | 1.21e5 | 1.43e5 | 8425 | inactive |
| CenG1A | DRSC03505 | 1.52e5 | 1.35e5 | 1.82e5 | 1.46e5 | 11675 | inactive |
| CenG1A | DRSC03506 | 1.20e5 | 1.34e5 | 1.65e5 | 1.63e5 | 12750 | inactive |
